According to the supplement of paper PMC11732987, “Enantioselective OTUD7B fragment discovery through chemoproteomics screening and high-throughput optimisation” (Communications Chemistry, 2025):
Some of the results follow. The data scatter; read single values as rough.

Chains of the proteins cited; added tags and fusions are not shown. Lines headed by an entry give the natural chain unless they say otherwise; changes in a name come on top. Residues count along the entry.
UniProt P10768: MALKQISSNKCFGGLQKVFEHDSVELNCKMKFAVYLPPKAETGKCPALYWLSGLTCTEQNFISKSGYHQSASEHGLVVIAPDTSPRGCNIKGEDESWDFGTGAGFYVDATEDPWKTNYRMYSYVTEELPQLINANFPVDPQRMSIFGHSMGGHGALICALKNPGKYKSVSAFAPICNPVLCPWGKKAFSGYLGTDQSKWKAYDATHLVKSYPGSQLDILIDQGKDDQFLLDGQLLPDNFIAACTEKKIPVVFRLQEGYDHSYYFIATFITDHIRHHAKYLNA
UniProt Q5T0W9: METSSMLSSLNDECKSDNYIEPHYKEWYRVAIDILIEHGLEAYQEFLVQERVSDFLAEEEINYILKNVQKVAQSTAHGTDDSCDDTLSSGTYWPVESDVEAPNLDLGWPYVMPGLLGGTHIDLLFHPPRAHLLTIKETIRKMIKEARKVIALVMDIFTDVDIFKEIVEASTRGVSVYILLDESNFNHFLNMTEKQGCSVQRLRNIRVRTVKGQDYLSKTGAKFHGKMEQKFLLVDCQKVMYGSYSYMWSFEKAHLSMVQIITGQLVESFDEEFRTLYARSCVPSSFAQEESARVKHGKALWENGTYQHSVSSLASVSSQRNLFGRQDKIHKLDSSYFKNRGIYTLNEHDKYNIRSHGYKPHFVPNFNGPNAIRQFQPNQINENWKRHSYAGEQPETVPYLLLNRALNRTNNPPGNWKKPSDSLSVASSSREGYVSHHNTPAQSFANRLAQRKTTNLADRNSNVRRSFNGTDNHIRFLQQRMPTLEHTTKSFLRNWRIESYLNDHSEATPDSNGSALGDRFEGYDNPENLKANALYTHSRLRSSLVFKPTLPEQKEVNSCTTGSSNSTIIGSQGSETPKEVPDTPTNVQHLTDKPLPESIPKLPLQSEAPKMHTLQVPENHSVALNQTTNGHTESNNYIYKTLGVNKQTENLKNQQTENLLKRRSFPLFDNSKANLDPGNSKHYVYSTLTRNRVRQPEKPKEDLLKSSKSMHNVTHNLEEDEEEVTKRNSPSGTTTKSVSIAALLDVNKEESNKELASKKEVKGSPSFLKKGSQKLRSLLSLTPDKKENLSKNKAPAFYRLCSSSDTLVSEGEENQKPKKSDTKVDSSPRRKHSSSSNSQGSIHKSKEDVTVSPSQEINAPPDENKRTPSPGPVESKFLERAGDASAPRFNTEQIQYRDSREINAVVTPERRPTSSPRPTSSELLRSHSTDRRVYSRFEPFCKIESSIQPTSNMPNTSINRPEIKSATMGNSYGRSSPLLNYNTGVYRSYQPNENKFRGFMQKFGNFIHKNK
UniProt Q9NQT5, whole entry, looked up: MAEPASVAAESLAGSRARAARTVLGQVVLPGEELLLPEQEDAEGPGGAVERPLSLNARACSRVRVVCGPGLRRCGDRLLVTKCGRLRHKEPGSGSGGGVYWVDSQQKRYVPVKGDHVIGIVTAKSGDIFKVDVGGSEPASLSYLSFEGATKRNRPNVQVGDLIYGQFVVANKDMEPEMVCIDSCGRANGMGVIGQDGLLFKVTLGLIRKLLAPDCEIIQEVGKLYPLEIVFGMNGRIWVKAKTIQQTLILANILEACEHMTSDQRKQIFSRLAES
UniProt Q96EK7: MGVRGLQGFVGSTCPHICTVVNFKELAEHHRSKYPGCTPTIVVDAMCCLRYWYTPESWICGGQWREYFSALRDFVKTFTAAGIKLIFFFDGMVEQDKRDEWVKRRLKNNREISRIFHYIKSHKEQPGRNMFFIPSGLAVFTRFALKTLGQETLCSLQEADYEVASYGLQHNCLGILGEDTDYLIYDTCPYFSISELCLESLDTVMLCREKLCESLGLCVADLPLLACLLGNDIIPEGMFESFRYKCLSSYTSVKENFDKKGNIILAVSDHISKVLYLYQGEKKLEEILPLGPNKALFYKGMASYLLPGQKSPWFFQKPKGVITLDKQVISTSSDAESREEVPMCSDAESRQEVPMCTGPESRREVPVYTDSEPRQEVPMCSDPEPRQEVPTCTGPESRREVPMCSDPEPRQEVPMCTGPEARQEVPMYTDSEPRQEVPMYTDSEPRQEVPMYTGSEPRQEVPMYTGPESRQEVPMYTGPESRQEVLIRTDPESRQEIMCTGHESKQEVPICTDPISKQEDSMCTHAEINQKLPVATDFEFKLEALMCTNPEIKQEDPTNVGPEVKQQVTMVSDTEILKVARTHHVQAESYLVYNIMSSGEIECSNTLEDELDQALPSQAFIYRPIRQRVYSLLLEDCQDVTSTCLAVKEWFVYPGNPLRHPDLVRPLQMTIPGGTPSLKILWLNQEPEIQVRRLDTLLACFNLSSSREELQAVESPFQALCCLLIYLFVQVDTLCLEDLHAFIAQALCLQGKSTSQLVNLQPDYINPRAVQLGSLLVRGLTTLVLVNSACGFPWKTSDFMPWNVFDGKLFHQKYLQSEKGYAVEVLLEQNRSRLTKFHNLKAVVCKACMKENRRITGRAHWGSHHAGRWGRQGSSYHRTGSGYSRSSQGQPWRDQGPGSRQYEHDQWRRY
UniProt Q96RT1, 19-39: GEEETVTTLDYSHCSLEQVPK
UniProt Q00597: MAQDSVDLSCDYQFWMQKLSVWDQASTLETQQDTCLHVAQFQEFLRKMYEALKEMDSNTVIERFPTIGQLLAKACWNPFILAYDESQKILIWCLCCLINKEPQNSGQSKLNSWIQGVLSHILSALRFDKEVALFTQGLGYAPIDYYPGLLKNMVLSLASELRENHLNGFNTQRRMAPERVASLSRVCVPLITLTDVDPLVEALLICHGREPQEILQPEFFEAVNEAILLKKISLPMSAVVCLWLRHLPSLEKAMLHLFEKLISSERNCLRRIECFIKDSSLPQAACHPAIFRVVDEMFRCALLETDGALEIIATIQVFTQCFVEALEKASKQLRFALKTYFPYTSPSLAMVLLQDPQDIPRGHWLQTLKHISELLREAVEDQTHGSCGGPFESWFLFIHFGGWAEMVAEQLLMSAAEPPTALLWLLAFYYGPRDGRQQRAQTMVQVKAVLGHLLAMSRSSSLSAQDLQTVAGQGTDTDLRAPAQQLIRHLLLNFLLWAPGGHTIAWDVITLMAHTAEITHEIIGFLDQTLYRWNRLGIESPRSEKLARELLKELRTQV
UniProt Q9NV70: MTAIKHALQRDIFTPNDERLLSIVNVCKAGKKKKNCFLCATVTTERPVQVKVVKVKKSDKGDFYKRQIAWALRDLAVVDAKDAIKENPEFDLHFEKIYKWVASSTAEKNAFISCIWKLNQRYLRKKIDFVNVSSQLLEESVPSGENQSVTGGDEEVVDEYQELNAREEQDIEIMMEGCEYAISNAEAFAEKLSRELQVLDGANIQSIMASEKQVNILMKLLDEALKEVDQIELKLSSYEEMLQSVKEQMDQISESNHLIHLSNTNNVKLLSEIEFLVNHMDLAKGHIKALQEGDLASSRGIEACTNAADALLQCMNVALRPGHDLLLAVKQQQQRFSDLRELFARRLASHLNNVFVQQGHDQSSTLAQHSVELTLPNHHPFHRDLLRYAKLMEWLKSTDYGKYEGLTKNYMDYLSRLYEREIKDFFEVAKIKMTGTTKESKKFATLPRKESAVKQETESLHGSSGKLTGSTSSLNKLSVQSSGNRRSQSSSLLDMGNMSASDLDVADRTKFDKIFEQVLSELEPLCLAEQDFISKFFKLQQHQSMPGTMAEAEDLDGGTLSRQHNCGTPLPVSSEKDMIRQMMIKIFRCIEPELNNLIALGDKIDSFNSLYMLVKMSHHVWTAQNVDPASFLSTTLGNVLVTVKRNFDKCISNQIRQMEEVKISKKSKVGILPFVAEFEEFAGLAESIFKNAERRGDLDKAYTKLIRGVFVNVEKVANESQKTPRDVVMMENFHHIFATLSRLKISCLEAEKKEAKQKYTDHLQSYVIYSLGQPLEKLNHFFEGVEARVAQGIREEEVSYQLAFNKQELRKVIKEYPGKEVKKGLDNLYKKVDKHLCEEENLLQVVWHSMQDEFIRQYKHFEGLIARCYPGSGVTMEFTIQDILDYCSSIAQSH
UniProt Q14674: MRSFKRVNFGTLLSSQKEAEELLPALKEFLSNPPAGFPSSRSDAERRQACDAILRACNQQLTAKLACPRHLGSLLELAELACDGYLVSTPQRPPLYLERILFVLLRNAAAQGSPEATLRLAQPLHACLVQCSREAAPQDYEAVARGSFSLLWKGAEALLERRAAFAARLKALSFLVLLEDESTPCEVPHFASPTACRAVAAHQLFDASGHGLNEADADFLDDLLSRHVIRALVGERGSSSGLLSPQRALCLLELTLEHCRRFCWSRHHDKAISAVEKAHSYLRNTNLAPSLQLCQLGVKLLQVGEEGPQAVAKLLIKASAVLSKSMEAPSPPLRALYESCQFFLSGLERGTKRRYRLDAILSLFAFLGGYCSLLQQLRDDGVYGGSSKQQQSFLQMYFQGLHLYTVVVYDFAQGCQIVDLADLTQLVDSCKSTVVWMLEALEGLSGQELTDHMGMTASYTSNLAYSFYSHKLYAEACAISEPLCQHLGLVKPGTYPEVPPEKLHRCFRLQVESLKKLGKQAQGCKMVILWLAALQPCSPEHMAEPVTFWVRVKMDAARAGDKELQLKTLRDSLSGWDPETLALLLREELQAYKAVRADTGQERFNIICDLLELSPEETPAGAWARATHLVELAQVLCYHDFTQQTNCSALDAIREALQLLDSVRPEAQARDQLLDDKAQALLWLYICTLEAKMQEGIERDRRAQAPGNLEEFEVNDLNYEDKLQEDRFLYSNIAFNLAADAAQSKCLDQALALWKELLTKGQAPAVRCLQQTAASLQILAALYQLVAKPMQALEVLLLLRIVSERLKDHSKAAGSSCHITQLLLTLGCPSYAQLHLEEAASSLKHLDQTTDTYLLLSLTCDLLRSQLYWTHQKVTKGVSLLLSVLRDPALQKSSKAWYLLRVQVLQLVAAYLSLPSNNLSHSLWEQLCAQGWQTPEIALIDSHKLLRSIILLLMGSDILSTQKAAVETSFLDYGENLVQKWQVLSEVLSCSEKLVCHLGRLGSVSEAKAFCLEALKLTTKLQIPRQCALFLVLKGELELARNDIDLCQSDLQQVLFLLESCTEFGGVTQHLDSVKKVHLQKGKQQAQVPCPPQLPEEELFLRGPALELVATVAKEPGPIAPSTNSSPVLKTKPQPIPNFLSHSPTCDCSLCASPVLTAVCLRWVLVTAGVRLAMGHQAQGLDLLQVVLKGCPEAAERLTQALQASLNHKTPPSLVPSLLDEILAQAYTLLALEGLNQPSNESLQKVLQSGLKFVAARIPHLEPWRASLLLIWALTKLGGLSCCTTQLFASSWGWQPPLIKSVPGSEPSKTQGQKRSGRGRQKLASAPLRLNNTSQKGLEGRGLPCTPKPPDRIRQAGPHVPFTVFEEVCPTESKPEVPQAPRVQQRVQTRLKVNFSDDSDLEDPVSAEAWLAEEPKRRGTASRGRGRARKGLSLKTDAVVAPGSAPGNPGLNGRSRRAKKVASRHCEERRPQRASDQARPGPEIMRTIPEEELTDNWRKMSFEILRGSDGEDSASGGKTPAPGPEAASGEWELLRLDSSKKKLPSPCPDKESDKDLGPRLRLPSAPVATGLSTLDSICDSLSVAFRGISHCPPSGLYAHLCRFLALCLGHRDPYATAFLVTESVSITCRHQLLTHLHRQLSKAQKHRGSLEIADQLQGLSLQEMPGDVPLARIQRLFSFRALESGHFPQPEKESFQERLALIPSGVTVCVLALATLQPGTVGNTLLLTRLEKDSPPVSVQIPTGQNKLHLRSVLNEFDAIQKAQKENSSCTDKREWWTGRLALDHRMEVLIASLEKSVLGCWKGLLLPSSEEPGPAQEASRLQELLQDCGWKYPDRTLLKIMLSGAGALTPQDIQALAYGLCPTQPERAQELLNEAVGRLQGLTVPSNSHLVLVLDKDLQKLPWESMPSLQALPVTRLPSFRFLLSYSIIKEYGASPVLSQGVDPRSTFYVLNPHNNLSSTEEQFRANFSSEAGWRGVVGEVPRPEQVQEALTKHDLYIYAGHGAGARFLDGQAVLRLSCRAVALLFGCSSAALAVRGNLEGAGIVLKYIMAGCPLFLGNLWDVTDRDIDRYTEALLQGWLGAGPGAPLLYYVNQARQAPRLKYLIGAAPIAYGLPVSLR
UniProt Q96C92: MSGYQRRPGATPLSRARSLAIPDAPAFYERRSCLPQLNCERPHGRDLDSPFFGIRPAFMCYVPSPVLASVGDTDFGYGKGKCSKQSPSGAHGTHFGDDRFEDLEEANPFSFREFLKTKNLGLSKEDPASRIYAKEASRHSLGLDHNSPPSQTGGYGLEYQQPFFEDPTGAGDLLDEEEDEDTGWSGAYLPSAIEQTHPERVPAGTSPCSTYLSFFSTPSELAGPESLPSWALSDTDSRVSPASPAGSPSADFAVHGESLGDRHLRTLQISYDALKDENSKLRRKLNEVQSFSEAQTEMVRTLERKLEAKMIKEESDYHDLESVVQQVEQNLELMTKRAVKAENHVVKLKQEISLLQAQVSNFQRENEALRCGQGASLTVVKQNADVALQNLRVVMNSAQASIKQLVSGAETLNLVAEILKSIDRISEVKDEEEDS
UniProt Q6IA86, 757-783: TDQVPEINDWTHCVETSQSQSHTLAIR
UniProt P50548, 459-481: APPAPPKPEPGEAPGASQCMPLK

Tests used:
[1] = compound: ClCC(=O)N[C@@H]1CCCc2ccccc12; assay: log2 mean competition ratio of IA-DTB cysteine labelling (DMSO/compound) (log2 ratio); higher = stronger cysteine engagement by compound; conditions: treatment time: 4 h, cell line lysate: HEK293T
Procedure: (§1)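 IA-DTB competitive cysteine chemoproteomics in HEK293T RIPA lysate. Lysates were treated with compound 29 or 30 at 50 or 200 µM for 4 h, then IA-DTB (500 µM, 1 h), trypsin-digested, NeutrAvidin-enriched and analysed by diaPASEF. Competition ratio = intensity DMSO / intensity compound (n=4 treated, n=64 DMSO); binding: mean log2 CR ≥ 1 and p ≤ 0.05 plus QC filters. Target is the cysteine site.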

[2] = compound: ClCC(=O)N[C@H]1CCCc2ccccc12; assay: as above; conditions: treatment time: 4 h, cell line lysate: HEK293T
Procedure: as §1

Row | Target | log2 mean competition ratio ([1]; 50 µM) | log2 mean competition ratio ([1]; 200 µM) | log2 mean competition ratio ([2]; 50 µM) | log2 mean competition ratio ([2]; 200 µM)
1 | ELMO1 C561 (UniProt Q92556) | 0.317 | 0.345 | 0.318 | 0.228
2 | ERC1 C258 | -0.118 | 0.054 | 0.028 | 0.0117
3 | ESD C28 (UniProt P10768) | -0.349 | -0.149 | -0.311 | -0.301
4 | EPB41L2 C232 (UniProt O43491) | -0.236 | -0.199 | -0.341 | -0.0363
5 | EPHB2 C620 (UniProt P29323) | -0.357 | -0.0712 | -0.512 | 0.0189
6 | FAN1 C700 | -0.0757 | 0.0104 | 0.121 | -0.0453
7 | FAM83D C148 (UniProt Q9H4H8) | 0.0789 | -0.102 | -0.204 | 0.148
8 | ERRFI1 C80 | 0.192 | -0.0201 | 0.118 | -0.172
9 | EXOC5 C675 (UniProt O00471) | -0.167 | 0.179 | -0.316 | 0.0586
10 | FAM83B C801 (UniProt Q5T0W9) | 0.29 | 0.104 | -0.254 | -0.154
11 | EXOSC3 C67 (UniProt Q9NQT5) | -0.132 | -0.207 | 0.057 | -0.291
12 | EZH1 C696 | 0.389 | -0.141 | -0.0694 | 0.0983
13 | EPHA2 C612 (UniProt P29317) | 0.0834 | 0.0743 | -0.211 | 0.0571
14 | FAM120B C499 (UniProt Q96EK7) | -0.0861 | -0.0146 | 0.00763 | 0.0977
15 | ETAA1 C68 (UniProt Q9NY74) | -0.155 | 0.00325 | 0.0465 | 0.126
16 | ENOX2 C216 | -0.305 | -0.0933 | -0.203 | -0.0343
17 | EYA2 C522 | 0.00562 | 0.23 | -0.347 | -0.403
18 | ENPP1 C6 | -0.21 | 0.211 | -0.0912 | 0.431
19 | EPHX4 C287 | 0.037 | -0.00927 | 0.817 | 0.0202
20 | ERBIN C32 (UniProt Q96RT1) | -0.344 | -0.1 | 0.071 | -0.308
21 | FAM135A C863 (UniProt Q9P2D6) | -0.0679 | 0.115 | 0.0865 | -0.00301
22 | FAM120B C523 (UniProt Q96EK7) | -0.419 | 0.358 | -0.343 | 0.129
23 | FANCC C286 (UniProt Q00597) | – | 0.447 | – | -0.031
24 | FANCI C594 (UniProt Q9NVI1) | -0.0217 | -0.0152 | -0.187 | -0.042
25 | EMC4 C69 (UniProt Q5J8M3) | 0.399 | 0.0269 | 0.179 | -0.0599

Row | Target | log2 mean competition ratio ([1]; 50 µM) | log2 mean competition ratio ([1]; 200 µM) | log2 mean competition ratio ([2]; 50 µM) | log2 mean competition ratio ([2]; 200 µM)
26 | EPHA3 C760 (UniProt P29320) | – | 0.0969 | -0.113 | 0.283
27 | FAF2 C194 (UniProt Q96CS3) | -0.109 | 0.06 | -0.139 | 0.0344
28 | EXOC1 C747 (UniProt Q9NV70) | -0.0521 | -0.0418 | 0.0481 | -0.16
29 | ELP1 C744 (UniProt O95163) | -0.0221 | -0.311 | 0.366 | -0.273
30 | FAM171A1 C815 (UniProt Q5VUB5) | 0.206 | 0.13 | 0.127 | 0.0358
31 | ESD C11 (UniProt P10768) | -0.366 | 0.292 | -0.472 | 0.191
32 | FAM8A1 C343 (UniProt Q9UBU6) | -0.247 | -0.326 | 0.0834 | -0.215
33 | EPB41L5 C543 (UniProt Q9HCM4) | – | 1.27 | – | 0.641
34 | FANCD2 C893 (UniProt Q9BXW9) | -0.205 | 0.191 | -0.181 | -0.0697
35 | EML4 C82 (UniProt Q9HC35) | 0.183 | -0.026 | 0.436 | 0.117
36 | ERCC2 C116 (UniProt P18074) | 0.195 | -0.302 | 0.0459 | -0.117
37 | ENTPD6 C325 (UniProt O75354) | -0.216 | -0.166 | -0.172 | -0.319
38 | ESPL1 C1829 (UniProt Q14674) | -0.0278 | -0.106 | -0.212 | -0.261
39 | ENTR1 C371 (UniProt Q96C92) | 0.0813 | 0.0806 | -0.0729 | -0.0472
40 | EMILIN3 C700 | -0.0409 | 0.491 | 0.147 | 0.222
41 | ETAA1 C26 (UniProt Q9NY74) | -0.0876 | -0.0923 | 0.0143 | -0.147
42 | EXOSC6 C64 (UniProt Q5RKV6) | 0.0237 | -0.156 | 0.36 | 0.175
43 | EXOSC5 C102 (UniProt Q9NQT4) | 0.0279 | -0.188 | -0.749 | -0.463
44 | ELP2 C769 (UniProt Q6IA86) | 0.426 | -0.347 | 0.412 | -0.29
45 | EXOC1 C114 (UniProt Q9NV70) | 0.00341 | -0.403 | 0.0637 | -0.328
46 | ESYT2 C181 | 0.12 | -0.173 | -0.213 | -0.269
47 | ERF C477 (UniProt P50548) | -0.0823 | -0.0107 | -0.149 | 0.026
48 | EXD2 C227 (UniProt Q9NVH0) | 0.42 | -0.0367 | 0.773 | 0.403
49 | EXOSC3 C215 (UniProt Q9NQT5) | -0.0916 | -0.39 | -0.329 | -0.333
50 | FAM120B C416 (UniProt Q96EK7) | -0.252 | 0.0595 | -0.0103 | 0.159

Reformatted as a markdown table: entries from further up.

| Row | Target | log2 mean competition ratio ([1]; 50 µM) | log2 mean competition ratio ([1]; 200 µM) | log2 mean competition ratio ([2]; 50 µM) | log2 mean competition ratio ([2]; 200 µM) |
| --- | --- | --- | --- | --- | --- |
| 27 | FAF2 C194 (UniProt Q96CS3) | -0.109 | 0.06 | -0.139 | 0.0344 |
| 28 | EXOC1 C747 (UniProt Q9NV70) | -0.0521 | -0.0418 | 0.0481 | -0.16 |
